Laboratory results published in patent publication US20180148485A1.
Results are given in words; binding and its absence hold for the method and conditions named. Some entries that bind do so weakly or less than the wild type. Where a sequence is shown, tags or fusion partners need not be part of it.

Amino acid sequences for entries named in this document (tags omitted). Residues count along the entry.
UniProt Q07011, residues 24-186: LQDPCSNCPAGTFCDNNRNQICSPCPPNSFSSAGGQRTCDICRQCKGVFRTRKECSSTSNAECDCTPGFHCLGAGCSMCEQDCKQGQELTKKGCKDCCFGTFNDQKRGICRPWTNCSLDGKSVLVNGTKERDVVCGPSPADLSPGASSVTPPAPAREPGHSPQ
UniProt P51654, residues 25-559: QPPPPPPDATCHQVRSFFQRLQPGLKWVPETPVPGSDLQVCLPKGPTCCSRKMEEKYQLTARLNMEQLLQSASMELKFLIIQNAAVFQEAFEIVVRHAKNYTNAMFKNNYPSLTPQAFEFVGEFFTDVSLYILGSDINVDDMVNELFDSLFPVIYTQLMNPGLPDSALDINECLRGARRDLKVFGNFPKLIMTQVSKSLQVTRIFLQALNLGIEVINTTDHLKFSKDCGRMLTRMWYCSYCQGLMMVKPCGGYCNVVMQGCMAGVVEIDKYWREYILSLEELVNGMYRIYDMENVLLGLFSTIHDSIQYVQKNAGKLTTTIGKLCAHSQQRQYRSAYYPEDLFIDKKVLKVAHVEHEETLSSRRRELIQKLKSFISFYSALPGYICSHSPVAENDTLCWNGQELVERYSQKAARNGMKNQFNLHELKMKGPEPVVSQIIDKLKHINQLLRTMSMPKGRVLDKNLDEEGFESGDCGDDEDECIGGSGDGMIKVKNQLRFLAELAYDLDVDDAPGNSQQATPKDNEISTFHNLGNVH

Legend:
[1] = molecular target: recombinant human CD137-Fc fusion protein (#838-4B-100, R&D Systems) (human) (UniProt Q07011); experiment: dual-binding ELISA, CD137-Fc coated, biotinylated GPC3 detected
[2] = molecular target: recombinant human GPC3 (R&D Systems #2119-GP-050/CF) (human) (UniProt P51654); experiment: as above
[3] = molecular target: recombinant human CD137-Fc fusion protein (#838-4B-100, R&D Systems) (human) (UniProt Q07011); experiment: SPR, CD137-Fc captured by anti-human Fc antibody on CM5 chip

Measured: binding

B1: bispecific fusion polypeptide of SEQ ID NO: 46 (designed binder)
chain: QDSTSDLIPAPPLSKVPLQQNFQDNQFQGKWYVVGVAGNGMLREDKDPLKMRATIYELKEDKSYDVTSVAFRNKKCHYKIGTFVPGSQPGEFTLGQIKSGPGETSNLVRVVSTNYNQHAMVFFKEVRQNREWFFITLYGRTKELTSELKENFIRFSKSLGLPENHIVFPVPIDQCIDGGGGGSGGGGSQDSTSDLIPAPPLSKVPLQQNFQDNQFHGKWYVVGQAGNIRLREDKDPIKMMATIYELKEDKSYDVTMVKFDDKKCMYDIWTFVPGSQPGEFTLGKIKSFPGHTSSLVRVVSTNYNQHAMVFFKFVFQNREEFYITLYGRTKELTSELKENFIRFSKSLGLPENHIVFPVPIDQCIDG
binds: all assays above

B2: bispecific fusion polypeptide of SEQ ID NO: 47 (designed binder)
chain: QDSTSDLIPAPPLSKVPLQQNFQDNQFQGKWYVVGVAGNGMLREDKDPLKMRATIYELKEDKSYDVTSVAFRNKKCHYKIGTFVPGSQPGEFTLGQIKSGPGETSNLVRVVSTNYNQHAMVFFKEVRQNREWFFITLYGRTKELTSELKENFIRFSKSLGLPENHIVFPVPIDQCIDGGGGGSGGGGSQDSTSDLIPAPPLSKVPLQQNFQDNQFHGKWYVVGQAGNIRLREDKDPIKMMATIYELKEDKSYDVTMVKFDDKKCMYDIWTFVPGSQPGEFTLGKIKSFPGHTSSLVRVVSTNYNQHAMVFFKFVFQNREEFYITLYGRTKELTSELKENFIRFSKSLGLPENHIVFPVPIDQCIDGGGGGSGGGGSQDSTSDLIPAPPLSKVPLQQNFQDNQFHGKWYVVGQAGNIRLREDKDPIKMMATIYELKEDKSYDVTMVKFDDKKCMYDIWTFVPGSQPGEFTLGKIKSFPGHTSSLVRVVSTNYNQHAMVFFKFVFQNREEFYITLYGRTKELTSELKENFIRFSKSLGLPENHIVFPVPIDQCIDG
binds: all assays above
